Structures can show the parent of a compound that is named as a salt. This is one part of the list. The calls rarely recur for the same compound in another form.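 In K562 cells expressing nanoluciferase-fused kinases, luminescence was recorded at 4 h intervals between 2 and 18 h, normalized as percent of control with DMSO at 100% and a positive control at 0%. A significant (2 sigma) signal drop marks a time point as decreased. The authors' rule for a hit is not shown and takes in more than the number of time points.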
Assays:
Assay in all cases: number of time points (of 5) at which kinase-Nluc abundance scored as decreased, DMSO-normalised (count); higher = more persistent destabilization
Conditions in all cases: K562; 2-18 h
CAMK2A = CAMK2A (UniProt Q9UQM7)
CAMK2G = CAMK2G (UniProt Q13555)
CDK10 = CDK10 (UniProt Q15131)
CDK2 = CDK2 (UniProt P24941)
CDK3 = CDK3 (UniProt Q00526)
CDK5 = CDK5 (UniProt Q00535)
CDK6 = CDK6 (UniProt Q00534)
CHEK2 = CHEK2 (UniProt O96017)
CSF1R = CSF1R (UniProt P07333)
CSK = CSK (UniProt P41240)
CSNK1A1 = CSNK1A1 (UniProt P48729)
CSNK1D = CSNK1D (UniProt P48730)
DDR1 = DDR1 (UniProt Q08345)
DYRK1B = DYRK1B (UniProt Q9Y463)
DYRK2 = DYRK2 (UniProt Q92630)
EGFR = EGFR (UniProt P00533)
EGFR_G719S = EGFR_G719S (UniProt P00533)
EGFR_G719S_T790M = EGFR_G719S_T790M (UniProt P00533)
EGFR_L718V = EGFR_L718V (UniProt P00533)
EGFR_L858R = EGFR_L858R (UniProt P00533)

Chains of the proteins cited; added tags and fusions are not shown. Lines headed by an entry give the natural chain unless they say otherwise; changes in a name come on top.
UniProt Q9UQM7, whole entry: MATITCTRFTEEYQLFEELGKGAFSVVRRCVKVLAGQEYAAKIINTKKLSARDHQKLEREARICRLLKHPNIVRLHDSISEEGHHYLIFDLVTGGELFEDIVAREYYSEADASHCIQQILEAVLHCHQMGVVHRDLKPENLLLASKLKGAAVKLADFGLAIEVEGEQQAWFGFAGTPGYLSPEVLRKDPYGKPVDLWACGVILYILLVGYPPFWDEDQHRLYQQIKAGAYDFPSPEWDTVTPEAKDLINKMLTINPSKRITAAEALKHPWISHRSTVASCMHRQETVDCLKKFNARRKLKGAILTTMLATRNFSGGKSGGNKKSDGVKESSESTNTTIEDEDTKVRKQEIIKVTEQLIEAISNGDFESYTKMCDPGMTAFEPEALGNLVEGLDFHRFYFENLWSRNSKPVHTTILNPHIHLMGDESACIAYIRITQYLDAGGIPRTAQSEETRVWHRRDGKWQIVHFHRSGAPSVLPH
UniProt Q13555: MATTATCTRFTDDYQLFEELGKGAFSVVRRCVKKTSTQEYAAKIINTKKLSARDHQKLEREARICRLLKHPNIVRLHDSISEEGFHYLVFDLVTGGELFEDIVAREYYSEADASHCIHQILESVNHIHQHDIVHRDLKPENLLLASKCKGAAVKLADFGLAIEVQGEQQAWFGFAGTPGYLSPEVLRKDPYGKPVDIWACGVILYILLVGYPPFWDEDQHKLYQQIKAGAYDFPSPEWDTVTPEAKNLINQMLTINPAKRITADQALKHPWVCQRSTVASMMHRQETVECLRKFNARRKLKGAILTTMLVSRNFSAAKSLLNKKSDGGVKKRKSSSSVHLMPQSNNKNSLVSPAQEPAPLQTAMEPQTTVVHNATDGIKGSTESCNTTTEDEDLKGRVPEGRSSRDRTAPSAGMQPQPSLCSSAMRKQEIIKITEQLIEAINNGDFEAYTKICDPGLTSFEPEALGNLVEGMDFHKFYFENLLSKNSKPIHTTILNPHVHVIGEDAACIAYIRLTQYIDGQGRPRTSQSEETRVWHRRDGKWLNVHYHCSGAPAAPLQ
UniProt Q15131: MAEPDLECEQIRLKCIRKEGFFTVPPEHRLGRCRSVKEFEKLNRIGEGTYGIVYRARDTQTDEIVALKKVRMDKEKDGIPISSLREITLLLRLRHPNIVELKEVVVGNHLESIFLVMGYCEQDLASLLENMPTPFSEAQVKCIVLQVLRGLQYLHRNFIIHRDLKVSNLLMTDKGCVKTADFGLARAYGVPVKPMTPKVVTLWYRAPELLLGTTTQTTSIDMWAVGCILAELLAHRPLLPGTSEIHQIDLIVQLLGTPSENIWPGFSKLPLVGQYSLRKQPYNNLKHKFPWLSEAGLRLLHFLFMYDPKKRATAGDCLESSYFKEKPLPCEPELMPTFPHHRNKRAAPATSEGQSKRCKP
UniProt Q00526: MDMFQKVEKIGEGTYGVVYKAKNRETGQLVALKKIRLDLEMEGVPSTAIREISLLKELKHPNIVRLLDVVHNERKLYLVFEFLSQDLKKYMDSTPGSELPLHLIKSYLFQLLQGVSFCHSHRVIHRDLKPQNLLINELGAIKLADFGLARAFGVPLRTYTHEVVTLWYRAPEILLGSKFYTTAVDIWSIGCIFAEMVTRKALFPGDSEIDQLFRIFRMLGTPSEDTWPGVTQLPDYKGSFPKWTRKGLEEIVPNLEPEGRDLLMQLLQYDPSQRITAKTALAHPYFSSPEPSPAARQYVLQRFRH
UniProt Q00535, whole entry, looked up: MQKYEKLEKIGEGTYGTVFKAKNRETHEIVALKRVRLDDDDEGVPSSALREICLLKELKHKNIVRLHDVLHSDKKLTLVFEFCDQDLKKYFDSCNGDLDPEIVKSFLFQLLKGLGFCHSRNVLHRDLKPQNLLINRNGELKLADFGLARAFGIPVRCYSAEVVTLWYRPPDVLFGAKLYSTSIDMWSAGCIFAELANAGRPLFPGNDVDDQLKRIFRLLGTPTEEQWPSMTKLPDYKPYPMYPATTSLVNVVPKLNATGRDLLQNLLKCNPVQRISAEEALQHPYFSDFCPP
UniProt Q00534, whole entry: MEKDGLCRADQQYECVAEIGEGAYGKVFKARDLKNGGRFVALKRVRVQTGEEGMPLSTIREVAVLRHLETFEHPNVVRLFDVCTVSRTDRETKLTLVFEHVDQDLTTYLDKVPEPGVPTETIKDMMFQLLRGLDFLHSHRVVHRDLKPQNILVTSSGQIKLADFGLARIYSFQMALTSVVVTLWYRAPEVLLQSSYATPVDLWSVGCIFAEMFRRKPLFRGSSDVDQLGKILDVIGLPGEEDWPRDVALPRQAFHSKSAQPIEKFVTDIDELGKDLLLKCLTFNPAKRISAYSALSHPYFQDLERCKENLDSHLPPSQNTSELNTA
UniProt O96017, whole entry: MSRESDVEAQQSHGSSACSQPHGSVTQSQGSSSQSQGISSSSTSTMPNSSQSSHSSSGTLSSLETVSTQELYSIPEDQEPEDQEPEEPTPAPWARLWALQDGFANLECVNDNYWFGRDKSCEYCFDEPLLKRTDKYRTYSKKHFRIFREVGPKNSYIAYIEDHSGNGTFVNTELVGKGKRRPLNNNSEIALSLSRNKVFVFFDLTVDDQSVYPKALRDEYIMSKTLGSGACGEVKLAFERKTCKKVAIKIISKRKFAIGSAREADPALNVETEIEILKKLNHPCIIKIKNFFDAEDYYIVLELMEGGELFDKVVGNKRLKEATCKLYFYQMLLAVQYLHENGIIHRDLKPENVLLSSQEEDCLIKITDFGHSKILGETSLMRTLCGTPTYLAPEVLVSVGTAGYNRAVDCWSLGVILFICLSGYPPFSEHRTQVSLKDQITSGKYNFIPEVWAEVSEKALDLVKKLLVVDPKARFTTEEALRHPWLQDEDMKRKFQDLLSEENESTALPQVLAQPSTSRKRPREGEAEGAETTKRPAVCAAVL
UniProt P07333, whole entry: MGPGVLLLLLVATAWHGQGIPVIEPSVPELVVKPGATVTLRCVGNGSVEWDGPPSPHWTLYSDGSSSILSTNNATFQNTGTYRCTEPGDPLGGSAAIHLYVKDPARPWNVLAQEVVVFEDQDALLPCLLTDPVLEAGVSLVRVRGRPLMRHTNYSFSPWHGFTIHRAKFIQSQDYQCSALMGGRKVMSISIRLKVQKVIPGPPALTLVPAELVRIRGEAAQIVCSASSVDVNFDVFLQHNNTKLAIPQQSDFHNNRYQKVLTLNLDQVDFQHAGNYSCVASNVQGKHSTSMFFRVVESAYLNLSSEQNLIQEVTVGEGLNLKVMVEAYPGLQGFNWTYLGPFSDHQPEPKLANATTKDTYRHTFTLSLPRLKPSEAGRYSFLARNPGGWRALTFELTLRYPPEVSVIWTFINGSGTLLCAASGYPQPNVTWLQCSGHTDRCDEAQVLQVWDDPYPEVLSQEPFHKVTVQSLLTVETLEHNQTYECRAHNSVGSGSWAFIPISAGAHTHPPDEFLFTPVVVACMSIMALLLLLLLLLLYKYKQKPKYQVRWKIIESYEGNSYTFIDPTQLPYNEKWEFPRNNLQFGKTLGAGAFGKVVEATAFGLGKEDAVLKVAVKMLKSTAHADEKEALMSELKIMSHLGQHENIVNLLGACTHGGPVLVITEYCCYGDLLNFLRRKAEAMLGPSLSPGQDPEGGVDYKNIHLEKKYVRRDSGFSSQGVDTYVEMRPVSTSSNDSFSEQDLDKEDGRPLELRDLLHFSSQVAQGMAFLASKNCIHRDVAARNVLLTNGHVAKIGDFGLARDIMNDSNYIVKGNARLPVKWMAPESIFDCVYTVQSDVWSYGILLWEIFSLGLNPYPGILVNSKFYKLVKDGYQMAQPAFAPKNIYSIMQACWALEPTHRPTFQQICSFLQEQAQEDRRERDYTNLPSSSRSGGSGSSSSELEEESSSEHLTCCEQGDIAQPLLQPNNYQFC
UniProt P41240: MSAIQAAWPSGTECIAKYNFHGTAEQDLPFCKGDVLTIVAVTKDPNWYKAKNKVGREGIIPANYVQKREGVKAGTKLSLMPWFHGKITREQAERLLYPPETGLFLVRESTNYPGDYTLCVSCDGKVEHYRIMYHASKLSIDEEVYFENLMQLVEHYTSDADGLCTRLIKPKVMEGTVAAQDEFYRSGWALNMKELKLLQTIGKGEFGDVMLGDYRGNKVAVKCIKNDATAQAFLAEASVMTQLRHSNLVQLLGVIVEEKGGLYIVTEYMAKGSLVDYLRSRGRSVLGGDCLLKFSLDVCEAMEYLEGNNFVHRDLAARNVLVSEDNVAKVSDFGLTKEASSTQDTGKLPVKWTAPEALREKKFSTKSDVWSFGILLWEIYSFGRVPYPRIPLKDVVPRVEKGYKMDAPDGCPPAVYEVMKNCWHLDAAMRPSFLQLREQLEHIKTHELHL
UniProt P48729: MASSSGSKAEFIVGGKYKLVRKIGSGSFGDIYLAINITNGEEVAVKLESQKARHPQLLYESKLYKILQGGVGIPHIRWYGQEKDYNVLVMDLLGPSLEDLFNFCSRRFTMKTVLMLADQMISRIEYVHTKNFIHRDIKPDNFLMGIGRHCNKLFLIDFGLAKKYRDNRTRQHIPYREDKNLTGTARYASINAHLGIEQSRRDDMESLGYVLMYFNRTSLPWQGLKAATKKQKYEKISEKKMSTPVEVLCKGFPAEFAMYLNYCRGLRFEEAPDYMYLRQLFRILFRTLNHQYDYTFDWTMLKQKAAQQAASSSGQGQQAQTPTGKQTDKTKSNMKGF
UniProt P48730: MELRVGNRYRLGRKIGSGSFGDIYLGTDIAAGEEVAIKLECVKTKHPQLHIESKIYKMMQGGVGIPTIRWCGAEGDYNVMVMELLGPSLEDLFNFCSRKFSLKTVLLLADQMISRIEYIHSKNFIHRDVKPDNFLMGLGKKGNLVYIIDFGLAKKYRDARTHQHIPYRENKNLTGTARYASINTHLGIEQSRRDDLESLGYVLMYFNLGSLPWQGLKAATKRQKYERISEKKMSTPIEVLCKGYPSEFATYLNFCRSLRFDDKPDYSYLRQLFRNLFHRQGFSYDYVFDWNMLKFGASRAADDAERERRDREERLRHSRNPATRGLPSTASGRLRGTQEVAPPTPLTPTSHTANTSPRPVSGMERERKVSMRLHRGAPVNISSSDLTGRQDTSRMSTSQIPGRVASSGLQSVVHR
UniProt Q08345: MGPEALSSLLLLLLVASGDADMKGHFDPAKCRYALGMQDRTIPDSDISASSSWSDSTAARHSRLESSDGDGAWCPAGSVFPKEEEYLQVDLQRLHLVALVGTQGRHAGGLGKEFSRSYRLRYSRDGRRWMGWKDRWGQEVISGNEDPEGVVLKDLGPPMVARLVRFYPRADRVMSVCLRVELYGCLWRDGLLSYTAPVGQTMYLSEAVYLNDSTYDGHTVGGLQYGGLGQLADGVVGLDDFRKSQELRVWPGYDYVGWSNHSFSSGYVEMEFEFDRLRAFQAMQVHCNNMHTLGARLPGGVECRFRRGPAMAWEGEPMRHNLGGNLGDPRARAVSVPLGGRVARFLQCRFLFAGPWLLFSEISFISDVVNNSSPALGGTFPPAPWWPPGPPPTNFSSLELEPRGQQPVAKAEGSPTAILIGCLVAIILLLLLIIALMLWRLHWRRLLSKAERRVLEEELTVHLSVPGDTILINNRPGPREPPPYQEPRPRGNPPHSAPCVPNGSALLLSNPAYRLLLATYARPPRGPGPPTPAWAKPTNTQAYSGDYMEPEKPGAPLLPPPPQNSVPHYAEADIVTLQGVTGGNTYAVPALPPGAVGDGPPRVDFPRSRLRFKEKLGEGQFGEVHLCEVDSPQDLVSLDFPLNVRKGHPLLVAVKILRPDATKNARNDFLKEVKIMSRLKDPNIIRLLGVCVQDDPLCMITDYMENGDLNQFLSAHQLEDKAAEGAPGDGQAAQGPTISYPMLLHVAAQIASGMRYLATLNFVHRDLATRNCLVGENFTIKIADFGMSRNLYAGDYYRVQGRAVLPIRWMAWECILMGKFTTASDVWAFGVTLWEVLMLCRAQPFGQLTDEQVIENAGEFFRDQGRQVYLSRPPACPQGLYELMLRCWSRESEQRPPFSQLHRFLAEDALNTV
UniProt Q9Y463, whole entry, looked up: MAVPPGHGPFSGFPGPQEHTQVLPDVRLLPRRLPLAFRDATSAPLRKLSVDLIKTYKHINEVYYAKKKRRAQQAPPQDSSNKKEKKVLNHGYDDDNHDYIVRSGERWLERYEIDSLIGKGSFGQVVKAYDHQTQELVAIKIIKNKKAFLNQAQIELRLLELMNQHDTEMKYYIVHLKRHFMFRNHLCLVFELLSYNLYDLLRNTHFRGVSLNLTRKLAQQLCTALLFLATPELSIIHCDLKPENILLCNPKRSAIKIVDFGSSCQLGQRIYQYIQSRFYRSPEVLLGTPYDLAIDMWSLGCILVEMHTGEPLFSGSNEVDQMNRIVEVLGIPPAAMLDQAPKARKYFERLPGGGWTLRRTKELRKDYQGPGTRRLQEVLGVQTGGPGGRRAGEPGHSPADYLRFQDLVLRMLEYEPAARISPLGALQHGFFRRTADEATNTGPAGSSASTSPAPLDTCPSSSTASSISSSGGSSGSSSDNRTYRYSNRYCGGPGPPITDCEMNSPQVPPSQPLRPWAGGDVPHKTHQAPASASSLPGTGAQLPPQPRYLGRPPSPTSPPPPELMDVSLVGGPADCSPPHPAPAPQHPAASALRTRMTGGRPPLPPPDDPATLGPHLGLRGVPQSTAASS

| Structure (SMILES) | number of time points (CAMK2A) | number of time points (CAMK2G) | number of time points (CDK10) | number of time points (CDK2) | number of time points (CDK3) | number of time points (CDK5) | number of time points (CDK6) | number of time points (CHEK2) | number of time points (CSF1R) | number of time points (CSK) | number of time points (CSNK1A1) | number of time points (CSNK1D) | number of time points (DDR1) | number of time points (DYRK1B) | number of time points (DYRK2) | number of time points (EGFR) | number of time points (EGFR_G719S) | number of time points (EGFR_G719S_T790M) | number of time points (EGFR_L718V) | number of time points (EGFR_L858R) |
| --- | --- | --- | --- | --- | --- | --- | --- | --- | --- | --- | --- | --- | --- | --- | --- | --- | --- | --- | --- | --- |
| CC1=C(CC(=O)O)c2cc(F)ccc2/C1=C\c1ccc(C(C)C)cc1 (10 µM) | 0 | 0 | 0 | 0 | 4 | 0 | 0 | 0 | 0 | 0 | 0 | 0 | 0 | 5 | 0 | 0 | 0 | 0 | 0 | 0 |
| C=C(F)C(=O)N1CCN(c2nc(OC[C@@H]3CCCN3C)nc3c2CCN(c2cccc4cccc(Cl)c24)C3)C[C@@H]1CC#N (2.5 µM) | 0 | 0 | 0 | 0 | 0 | 0 | 0 | 0 | 0 | 0 | 0 | 0 | 0 | 0 | 0 | 0 | 0 | 0 | 0 | 0 |
| O=C(c1ccc(Nc2nccc(-c3cc4ccccc4s3)n2)cc1)N1CCC(N2CCCC2)CC1 (2.5 µM) | 0 | 0 | 0 | 0 | 0 | 0 | 0 | 0 | 0 | 0 | 0 | 0 | 0 | 0 | 0 | 0 | 0 | 0 | 0 | 0 |
| O=C(O)CCc1ccc(NCc2cccc(Oc3ccccc3)c2)cc1 (10 µM) | 0 | 0 | 0 | 0 | 0 | 0 | 0 | 0 | 0 | 0 | 0 | 0 | 0 | 0 | 0 | 0 | 0 | 0 | 0 | 0 |
| Cc1cc(C(C)Nc2ccccc2)c2nc(N3CCOCC3)cc(=O)n2c1 (stereo not given) (10 µM) | 0 | 0 | 0 | 0 | 0 | 0 | 0 | 0 | 0 | 0 | 0 | 0 | 0 | 0 | 0 | 0 | 0 | 0 | 0 | 0 |
| CN(C)Cc1cccc(N=C(c2ccccc2)c2c(O)[nH]c3cc(C(N)=O)ccc23)c1 (10 µM) | 0 | 0 | 0 | 0 | 0 | 0 | 0 | 0 | 0 | 0 | 0 | 0 | 0 | 0 | 0 | 0 | 0 | 0 | 0 | 0 |
| NS(=O)(=O)c1ccc(N2N=C(c3ccccc3)CC2c2ccccc2)cc1 (stereo not given) (10 µM) | 0 | 0 | 0 | 0 | 0 | 0 | 0 | 0 | 0 | 0 | 0 | 0 | 0 | 0 | 0 | 0 | 0 | 0 | 0 | 0 |
| CCCCCCCC/C=C\CCCCCCCC(=O)NCC(=O)O [N-Oleoyl glycine] (10 µM) | 0 | 0 | 0 | 0 | 0 | 0 | 0 | 0 | 0 | 0 | 0 | 0 | 0 | 0 | 0 | 0 | 0 | 0 | 0 | 0 |
| O=C(CCCCCn1cc(Nc2ncc(Cl)c(Nc3ccc(Cl)cc3)n2)cn1)NO (2.5 µM) | 1 | 0 | 0 | 0 | 0 | 0 | 0 | 0 | 0 | 0 | 0 | 1 | 0 | 0 | 0 | 1 | 0 | 1 | 1 | 0 |
| CCN1C(=O)CNc2ncc(-c3ccc(-c4nc[nH]n4)nc3C)nc21 [CC-115 (hydrochloride)] (2.5 µM) | 0 | 3 | 0 | 0 | 0 | 0 | 1 | 1 | 3 | 0 | 3 | 3 | 4 | 2 | 4 | 2 | 2 | 2 | 1 | 3 |
| CC(=O)Nc1nc(C)c(-c2nc(N3CCCC(O)C3)no2)s1 (stereo not given) (10 µM) | 0 | 0 | 0 | 0 | 0 | 0 | 0 | 0 | 0 | 0 | 0 | 0 | 0 | 0 | 0 | 0 | 0 | 0 | 0 | 0 |
| COc1ccc(CN2C3CC2CN(c2ccc(-c4cc(OCC(C)(C)O)cn5ncc(C#N)c45)cn2)C3)cn1 [Selpercatinib] (10 µM) | 0 | 0 | 0 | 0 | 0 | 0 | 2 | 0 | 0 | 0 | 0 | 0 | 0 | 0 | 0 | 0 | 0 | 0 | 0 | 0 |
| NCCCCCCNS(=O)(=O)c1cccc2c(Cl)cccc12 [W-7 (hydrochloride)] (10 µM) | 0 | 0 | 0 | 0 | 0 | 0 | 0 | 0 | 0 | 0 | 0 | 0 | 0 | 0 | 0 | 0 | 0 | 0 | 0 | 0 |
| CCOc1c([C@H](C)n2nc(C)c3c(N)ncnc32)cc(Cl)c(F)c1[C@@H]1CNC(=O)C1 [Parsaclisib (hydrochloride)] (10 µM) | 0 | 0 | 0 | 0 | 0 | 0 | 0 | 0 | 0 | 0 | 0 | 0 | 0 | 0 | 0 | 0 | 0 | 0 | 0 | 0 |
| O=C1NC(=O)C(c2cnc3ccccn23)=C1c1cn2c3c(cc(F)cc13)CN(C(=O)N1CCCCC1)CC2 (2.5 µM) | 0 | 0 | 0 | 0 | 0 | 0 | 0 | 0 | 0 | 0 | 0 | 0 | 0 | 0 | 0 | 0 | 0 | 0 | 0 | 0 |
| Cc1cccc(-c2[nH]ncc2-c2ccc3ncccc3n2)n1 (10 µM) | 0 | 0 | 0 | 0 | 0 | 0 | 0 | 0 | 0 | 0 | 0 | 0 | 0 | 0 | 0 | 0 | 0 | 0 | 0 | 0 |
| CN1C(=O)NC(Cc2c[nH]c3c(Cl)cccc23)C1=O (racemic) [Necrostatin 2 (racemate)] (10 µM) | 0 | 0 | 0 | 0 | 0 | 0 | 0 | 0 | 0 | 0 | 0 | 0 | 0 | 0 | 0 | 0 | 0 | 0 | 0 | 0 |
| O=C(O)c1ccc(N2N=C(Cc3ccccc3)C(=Cc3ccc(-c4ccccc4F)o3)C2=O)cc1 (10 µM) | 0 | 0 | 0 | 0 | 0 | 0 | 0 | 0 | 0 | 0 | 0 | 0 | 0 | 0 | 0 | 0 | 0 | 0 | 0 | 0 |
| CCCC(=O)Nc1nc2c(ncn2[C@@H]2O[C@@H]3COP(=O)(O)O[C@H]3[C@H]2OC(=O)CCC)c(=O)[nH]1 [Dibutyryl-cGMP (sodium)] (10 µM) | 0 | 0 | 0 | 0 | 0 | 0 | 0 | 0 | 0 | 0 | 0 | 0 | 0 | 0 | 0 | 0 | 0 | 0 | 0 | 0 |
| COc1c(C)c(C(=O)c2ccc(N)c(C(=O)O)c2)n2ccccc12 (10 µM) | 0 | 0 | 0 | 0 | 0 | 0 | 0 | 0 | 0 | 0 | 0 | 0 | 0 | 0 | 0 | 0 | 0 | 0 | 0 | 0 |
| CC(C)N(C)c1nc2cc(C(=O)O)ccc2nc1-c1ccc(F)cc1 (10 µM) | 0 | 0 | 0 | 0 | 0 | 0 | 0 | 0 | 0 | 0 | 0 | 0 | 0 | 0 | 0 | 0 | 0 | 0 | 0 | 0 |
| Cc1cc2ncc(-c3ccccc3)nc2cc1C (10 µM) | 0 | 0 | 0 | 0 | 0 | 0 | 0 | 0 | 0 | 0 | 0 | 0 | 0 | 0 | 0 | 0 | 0 | 0 | 0 | 0 |
| COc1cnccc1Nc1nc(-c2nn(Cc3c(F)cc(OCCO)cc3F)c3ccccc23)ncc1OC (10 µM) | 0 | 0 | 0 | 0 | 0 | 0 | 0 | 0 | 0 | 0 | 0 | 0 | 0 | 0 | 0 | 0 | 0 | 0 | 0 | 0 |
| Cc1nc(NC(=O)NCCc2nnn(CCF)n2)sc1-c1ccc(S(C)(=O)=O)c(F)c1 (10 µM) | 0 | 0 | 0 | 0 | 0 | 0 | 0 | 0 | 0 | 0 | 0 | 0 | 0 | 0 | 0 | 0 | 0 | 0 | 0 | 0 |
| C=CC(=O)Nc1cccc(-n2c(=O)cc(C)c3cnc(Nc4ccc(OCCN(C)C)cc4OC)nc32)c1 (10 µM) | 0 | 0 | 0 | 0 | 0 | 0 | 0 | 0 | 0 | 0 | 0 | 0 | 0 | 0 | 0 | 0 | 0 | 0 | 0 | 0 |

One compound at a time, from the list above. Order of values: number of time points (CAMK2A) | number of time points (CAMK2G) | number of time points (CDK10) | number of time points (CDK2) | number of time points (CDK3) | number of time points (CDK5) | number of time points (CDK6) | number of time points (CHEK2) | number of time points (CSF1R) | number of time points (CSK) | number of time points (CSNK1A1) | number of time points (CSNK1D) | number of time points (DDR1) | number of time points (DYRK1B) | number of time points (DYRK2) | number of time points (EGFR) | number of time points (EGFR_G719S) | number of time points (EGFR_G719S_T790M) | number of time points (EGFR_L718V) | number of time points (EGFR_L858R)
O=C1NC(=O)C(c2cnc3ccccn23)=C1c1cn2c3c(cc(F)cc13)CN(C(=O)N1CCCCC1)CC2 (2.5 µM) is entered as 0 | 0 | 0 | 0 | 0 | 0 | 0 | 0 | 0 | 0 | 0 | 0 | 0 | 0 | 0 | 0 | 0 | 0 | 0 | 0
O=C(CCCCCn1cc(Nc2ncc(Cl)c(Nc3ccc(Cl)cc3)n2)cn1)NO (2.5 µM) is entered as 1 | 0 | 0 | 0 | 0 | 0 | 0 | 0 | 0 | 0 | 0 | 1 | 0 | 0 | 0 | 1 | 0 | 1 | 1 | 0

— the supplement of paper PMC12823440, “Inhibitors supercharge kinase turnover through native proteolytic circuits” (Nature, 2025)
